Experimental findings from PubChem BioAssay AID485318 (Broad Institute, 2010) are described below.

Chains of the proteins cited; added tags and fusions are not shown. Lines headed by an entry give the natural chain unless they say otherwise; changes in a name come on top.
UniProt O15379: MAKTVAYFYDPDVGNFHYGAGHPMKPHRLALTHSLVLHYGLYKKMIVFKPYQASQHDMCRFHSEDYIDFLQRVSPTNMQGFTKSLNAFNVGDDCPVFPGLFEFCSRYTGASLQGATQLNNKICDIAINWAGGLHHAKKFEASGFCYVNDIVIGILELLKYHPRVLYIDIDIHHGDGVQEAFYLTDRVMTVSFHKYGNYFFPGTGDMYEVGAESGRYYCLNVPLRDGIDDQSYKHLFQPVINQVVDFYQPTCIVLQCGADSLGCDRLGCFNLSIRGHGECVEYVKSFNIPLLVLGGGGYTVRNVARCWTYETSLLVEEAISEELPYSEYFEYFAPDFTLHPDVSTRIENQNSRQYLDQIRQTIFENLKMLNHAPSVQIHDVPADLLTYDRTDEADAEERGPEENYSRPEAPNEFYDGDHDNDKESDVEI

Fewer than 10 of roughly 1,400 compounds were called active.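 Rule for the calls: active = fluorescence-lowering compounds whose fitted half-maximal concentration is at or below ten times the highest valid dose tested; inconclusive = flat curve at 30 to 70% inhibition, or poor fit; inactive = the rest.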 The list shows a part of the results.

The target in this assay is Histone deacetylase 3 (Homo sapiens) (UniProt O15379). Briefly: inhibition of human HDAC3 enzymatic activity – biochemical, fluorescence, cherry-picked samples, counter-screen for JMJD2C/GASC1 demethylase inhibitor project, dose response (AID 485318).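 Note: enzyme preincubated with compound before substrate and trypsin were added; 0% = neutral control wells and -100% = SAHA positive control wells.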 As to conditions: recombinant HDAC3, fluorogenic peptide/trypsin coupled; at 12 µM (top of the series).
For the compound `O=C(OCC(=O)N1CCCC1)c1ccc(S(=O)(=O)Nc2ccccc2)cc1`, the activity change, negative = inhibition was inactive: -0.162%.
With `C#CCOCCOCCOCCNc1nc(N2CCN(C(=O)[C@H](CCCN=C(N)N)n3cc(C(N)[C@H](C)CC)nn3)CC2)nc(N2CCN(C(=O)[C@H](CC(N)=O)n3cc(C(N)[C@@H](C)CC)nn3)CC2)n1` (stereo partly specified) the figure was inactive: -0.237%.
With `Cc1ccc(S(=O)(=O)Nc2ccc3c(c2)CC(=O)N([C@H](C)CO)C[C@@H](C)[C@H](CN(C)S(=O)(=O)c2ccccc2)O3)cc1` the figure was inactive: 1.04%; with `CCCCCNc1nc(-c2ccccc2)nc(-n2ccnc2)n1`, inactive: -0.269%.
With `O=C(O)COc1ccc(NC(=O)C(c2ccccc2)c2ccccc2)cc1` the figure was inactive: 0.356%; with `O=C(c1oc(=O)c2ccccc2c1-c1ccccc1)N1CCOCC1`, inactive: 0.035%; with `NS(=O)(=O)c1ccc(CCNC(=O)CSc2ccccc2)cc1`, inactive: 0.651%.
Regarding `COc1cc(/C=N/N2C(=O)C3C4c5ccccc5C(c5ccccc54)C3C2=O)ccc1O` (stereo unspecified), the activity change, negative = inhibition was inactive: 0.23%.
`COc1ccc(-c2cc(C(F)(F)F)nc(SCCC(=O)NCc3ccco3)n2)cc1`: the activity change, negative = inhibition is inactive: -2.16%.
As for `CCCN(CC(=O)Nc1ccccc1C)C(=O)CCl`, the figure is inactive: 0.105%; as for `O=C(O)c1ccc2cc(-c3ccccc3)[nH]c2c1`, inactive: -0.104%.
As for `CC1CCN(S(=O)(=O)c2ccc3[nH]c(=O)[nH]c3c2)CC1`, the figure is inactive: -0.601%; as for `CC1=NN(C(N)=S)C(=O)C1N=Nc1c(C)cc(C)cc1C` (stereo unspecified), inactive: 0.141%.
With `CN1CCN(c2nc3ccccn3c(=O)c2/C=C(\C#N)S(=O)(=O)c2ccc(Cl)cc2)CC1` the figure was inactive: 1.17%; with `Cc1ccc2nc(-c3cccc(NS(C)(=O)=O)c3)cc(-c3ccccc3)c2c1`, inactive: 0.133%.
For the compound `C=CCNC(=S)Nc1ccc(N2CCOCC2)c(S(=O)(=O)Nc2ccccc2Cl)c1`, the activity change, negative = inhibition was inactive: 0.0985%.
As for `Cc1c(NC(=O)CCN2C(=O)c3ccccc3C2=O)c(=O)n(-c2ccccc2)n1C`, the figure is inactive: 0.431%.
With `C#CCOCCOCCOCCNc1nc(N2CCN(C(=O)C([C@@H](C)O)n3cc([C@@H](N)CCCCN)nn3)CC2)nc(N2CCN(C(=O)[C@H](CC(N)=O)n3cc([C@@H](N)C(C)C)nn3)CC2)n1` (stereo partly specified) the figure was inactive: 0.407%; with `CC(=O)N/C(=C\c1ccccc1)C(=O)OCC(=O)NC1CCCC1`, inactive: -0.477%; with `O=C(O)c1ccc2c(c1)C(=O)N(CCC1=CCCCC1)C2=O`, inactive: 0.227%.
With `CCOc1cc(NC(=S)NCCOC)c(OCC)cc1NC(=O)c1cccs1` the figure was inactive: -1.07%; with `CCC(=O)Nc1cc2c(cc1C(=O)CC)OCCO2`, inactive: -0.0822%; with `COc1ccc(NN=Nc2nc3c([nH]2)c(=O)n(C)c(=O)n3C)cc1`, inactive: 0.508%.
Turning to `O=c1c2cnn(-c3ccccc3)c2nc(-c2cccs2)n1-c1ccc(Cl)cc1`, the activity change, negative = inhibition is inactive: 0.414%.
With `Cc1ccc(-c2noc(C3CCN(S(C)(=O)=O)CC3)n2)o1` the figure was inactive: -0.331%; with `COc1ccc(Nc2ncnc3sc(-c4ccccc4)cc23)cc1OC`, inactive: -0.433%.
With `Cc1nnc(-c2cccc(Br)c2)c2cn(-c3ccccc3Cl)nc12` the figure was inactive: 0.673%; with `O=C(OCCCOC(=O)c1ccc(Br)o1)c1ccc(Br)o1`, inactive: 0.495%; with `COc1ccc(NC(=S)NCCCn2ccnc2)cc1`, inactive: -0.13%.
As for `CCOc1ccc(CN(C)CC(=O)Nc2cc(C)c(C)cc2[N+](=O)[O-])cc1`, the figure is inactive: -0.108%.
As for `N#Cc1ccc(OCC(=O)Nc2ccccc2NS(=O)(=O)c2cccs2)cc1`, the activity change, negative = inhibition was inactive: -0.131%.
Regarding `Cc1nc(C(C)NC(=O)CCc2nnc(CCCc3ccccc3)o2)c(C)s1` (stereo unspecified), the activity change, negative = inhibition is inactive: -0.657%.
For the compound `CCOC(=O)c1sc(=S)n(-c2ccc(Cl)cc2)c1SC`, the activity change, negative = inhibition is inactive: 0.862%.
With `COc1ccc(CC(=O)Nc2ccc(S(=O)(=O)N(C)C)cc2)cc1OC`, the activity change, negative = inhibition was inactive: -0.171%.
As for `O=C(CSc1nnc(CNC(=O)c2ccco2)o1)NC1CCCC1`, the figure is inactive: 0.355%; as for `CCCC(=O)NC(c1cccs1)c1cc(Cl)c2cccnc2c1O` (stereo unspecified), inactive: -0.547%; as for `CCNC(=S)NNC(=O)c1csc2c1CCC(C)C2` (stereo unspecified), inactive: 0.337%.
With `O=C(c1cccs1)N1CCN(S(=O)(=O)c2ccc(F)cc2)CC1` the figure was inactive: 0.208%.
As for `CCOC(=O)C1=C(C)NC(=O)NC1c1c(C)nn(-c2ccccc2)c1Cl` (stereo unspecified), the figure is inactive: 0.387%; as for `Cc1cccc(NC(=O)CCN2CCN(C/C=C/c3ccccc3)CC2)c1`, inactive: -0.344%.
Turning to `CCC(C(=O)NCCCc1ccccc1)c1ccccc1` (stereo unspecified), the activity change, negative = inhibition was inactive: 0.435%.
With `COCCn1nnnc1C(c1ccccc1)N1CCN(C(=O)c2ccco2)CC1` (stereo unspecified) the figure was inactive: -0.0066%; with `CC(=O)Oc1ccc(NC(=O)Cc2ccccc2)c(C(=O)O)c1`, inactive: 0.179%; with `CCOC(=O)Cn1c(=O)cnc2ccccc21`, inactive: -0.102%.
With `CC(C)CCN(C(=O)C1=COCCO1)c1c(N)n(Cc2ccccc2)c(=O)[nH]c1=O` the figure was inactive: -0.567%; with `O=C(Cn1cnc2ccccc2c1=O)NCc1cccs1`, inactive: 1.05%; with `CCc1nn2c(N3CCOCC3)cc(C)nc2c1-c1ccc(F)cc1`, inactive: 0.143%.
As for `CC(=O)c1ccc(O[C@@H]2O[C@H](CO)[C@@H](O)[C@H](O)[C@H]2O)cc1`, the figure is inactive: -0.355%; as for `CCCCn1c(-c2ccsc2)nc2c1c(=O)[nH]c(=O)n2CCC`, inactive: 0.225%.
Take `CCN(CC)CCSc1nc2ccccc2c(=S)n1-c1ccccc1`: the activity change, negative = inhibition is inactive: -0.421%.
`CC(=O)C[C@@H](O)CC(=O)[C@H]1OC(=O)[C@H](C)C/C=C\Cc2ccccc21`: the activity change, negative = inhibition is inactive: -0.625%.
With `CCC(CO)Oc1cc(NC(=O)c2cccc(OC)c2)c2ncn(C(C)C)c2c1` (stereo unspecified) the figure was inactive: -0.418%; with `CC(C)(C)NC(=O)C1CCN(C(=O)c2ccc(Br)cc2)CC1`, inactive: -0.16%; with `O=[N+]([O-])c1ccccc1N/N=C\c1ccccc1Cl`, inactive: -0.288%.
As to `Cc1noc(C)c1NC(=O)Nc1cccc2c1O[C@H](CN(C)C(=O)Nc1ccc3c(c1)OCO3)[C@@H](C)CN([C@H](C)CO)C2=O`, the activity change, negative = inhibition was inactive: 0.208%.
On to `Cc1ccc(/C=N\NC(=O)c2cc([N+](=O)[O-])cc([N+](=O)[O-])c2)o1`, for which the activity change, negative = inhibition was inactive: -0.64%.
With `O=C(O)CCCNC(=O)c1cccc(C(=O)NCCCC(=O)O)n1` the figure was inactive: 1.32%.
With `COc1ccc(C)cc1NC(=O)CN(C)S(=O)(=O)c1ccc2c(c1)CC(C)N2C(C)=O` (stereo unspecified) the figure was inactive: 0.478%; with `Cc1ccc(NN=Nc2nc3c([nH]2)c(=O)n(C)c(=O)n3C)cc1`, inactive: -0.597%; with `CCCCNC(=O)OCCNC(=O)Oc1cccc(C)c1`, inactive: -0.629%.
With `Cc1ccc(OC(=O)c2ccc3nc(C)sc3c2)cc1` the figure was inactive: 0.613%; with `Cc1cc(OC(=O)N2CCOCC2)cc(C)c1Cl`, inactive: 0.236%; with `O=C(COC(=O)C1(c2ccccc2F)CCCC1)Nc1ncc(C(F)(F)F)cc1Cl`, inactive: -0.037%.
For `Cc1ccc(S(=O)(=O)N2[C@@H](c3ccc(Cl)c(Cl)c3)C(C(=O)O)=C[C@H]2C(C)(C)C)cc1`, the activity change, negative = inhibition was inactive: -0.663%.
With `Cc1cccc(C(=O)N/N=C/C(C)Cc2ccc3c(c2)OCO3)c1` (stereo unspecified) the figure was inactive: -0.0551%; with `C[C@H]1CN([C@@H](C)CO)C(=O)Cc2cc(NS(=O)(=O)c3cccs3)ccc2O[C@H]1CN(C)S(=O)(=O)c1cn(C)cn1`, inactive: -0.706%.
As for `CNC(=O)C1=NCCCc2cc(OC)c(OC)cc21`, the figure is inactive: -0.166%; as for `Nc1c(C(=O)NC2CC2)sc2nc3c(c(-c4ccco4)c12)CC/C3=C/c1ccco1`, inactive: -0.316%; as for `Cc1cc(C)nc(NC(N)=NC(C)c2ccccc2)n1` (stereo unspecified), inactive: 0.352%.
Regarding `CC(C)CC1c2[nH]c3ccccc3c2CCN1C(=O)c1cnccn1` (stereo unspecified), the activity change, negative = inhibition was inactive: -1.25%.
As for `Cc1nn(C)c(N)c1C(O)(c1nccn1C)C(F)(F)F` (stereo unspecified), the figure is inactive: 0.0673%.
As to `COc1ccc(S(=O)(=O)Nc2ccc3c(c2)C(=O)N([C@H](C)CO)C[C@H](C)[C@@H](CN(C)S(=O)(=O)c2c(C)noc2C)O3)cc1`, the activity change, negative = inhibition is inactive: -0.195%.
With `CSc1nc(N)nc2c1ncn2CC(=O)NCCNc1ccc([N+](=O)[O-])cn1` the figure was inactive: -0.105%; with `Cc1ccc(S(=O)(=O)Nc2ccc3c(c2)C(=O)N([C@H](C)CO)C[C@H](C)[C@@H](CN(C)Cc2ccccc2)O3)cc1`, inactive: -0.143%.
With `COc1ccccc1N1CCN(c2nc3c(C)cccn3c(=O)c2C=O)CC1` the figure was inactive: 0.107%; with `CNCCNC[C@H](Cc1cccc2ccccc12)NCCc1ccccc1`, inactive: 0.726%.
As for `COC(=O)CSC1=C(C#N)C(c2ccsc2)CC(=O)N1` (stereo unspecified), the figure is inactive: 0.541%; as for `C/C(=N\NC(=O)c1ccncc1)c1ccc(N(C)C)cc1`, inactive: 0.954%; as for `CCCn1nnnc1SCC(=O)NCc1ccc(OC)cc1`, inactive: -0.104%.
As for `O=c1c(O)cccc2cc(O)c(O)c(O)c12`, the activity change, negative = inhibition is inactive: -0.21%.
As for `CCCC(CCC)C(=O)Nc1cccc(-c2cn3c(n2)SCC3)c1`, the figure is inactive: -0.0929%; as for `COc1cccc(NC(=O)N2CCN(c3cccc(C)c3)C(C)C2)c1` (stereo unspecified), inactive: 0.124%; as for `Fc1ccc(-c2csc(Nc3ccccn3)n2)cc1`, inactive: 0.334%.
With `CC[C@@H]1CCCCc2ccccc2[C@@H](C(=O)C[C@@H](O)CC(C)=O)OC1=O` the figure was inactive: 0.383%; with `Cc1ccc(NC2=NCC(=O)N2Cc2ccc3c(c2)OCO3)c(C)c1`, inactive: 0.52%.
On to `CCOc1cccc(C2C(C(=O)c3ccco3)=C(O)C(=O)N2Cc2ccncc2)c1` (stereo unspecified), for which the activity change, negative = inhibition is inactive: -0.0935%.
